Experimental data as given in US20250333523A1 (Alector, published 2025).
Numbering of substitutions follows the chain as printed. Results are given in words; binding and its absence hold for the method and conditions named. Some results given as binding are weak or reduced against the parent protein; the word gives no strength.

B1: anti-IL18BP antibody BP-09 (antibody, human IgG1, V domains shown)
VH: QVQLQQSGAELVRPGASVTLSCKASGYRFTDYAMHWVKQTPVHGLQWIGIIDPETGDTAFNQKFKGKATLTADKSSSTAYMELSSLTSEDSAVYYCTRPRGAMDYWGQGTSVTVSS
VL: DIVMTQSHKFMSTSGGDRVSITCKASQDVGTAVAWYQQKPGISPKLLIYWASTRHTGVPDRFTGSGSGTDFTLAISNVQSEDLADYFCQQYSSHPYTFGGGTKLEIK
B2: anti-IL18BP antibody BP-10 (antibody, human IgG1, V domains shown)
VH: QVQLQQPGAERVEPGASVRLSCKTSGYTFTNYWMHWVKQRPGQGLEWIGMIHPESGSTNNNEKFKSKATLTVDKSSSTAYMQLSSLTSEDSAVYYCARWDRGYFDYWGQGTTLTVSS
VL: DIVMTQSHKFMSTSVGDRVSITCKASQDVRSTVGWYQQRPGQSPKLLIYWTSTRHTGVPDRFTGSGSGTDYTLTISSVQAEDLALYYCQQHYSTPYTFGGGTTLEIK
B3: anti-IL18BP antibody BP-12 (antibody, human IgG1, V domains shown)
VH: EVQLQQSGPELVKPGASVKMSCKTSGYTFTEYTMHWVKQSHGKSLEWIGGVNPNNGGTTYNQKFRDKATLTVDKSSSTTYMEVRTLTSDDSAVYYCAPLWRVFDYWGQGTTLTVSS
VL: DIVMTQSHKFMSSSVGDRVSITCKASQDVGTAVAWYQQKPGQSPKLLIYWASTRHTGVPDRFTGSGSGTDFTLTISNVQSEDLADYFCHQFSRYPLTFGAGTKLELK
B4: anti-IL18BP antibody BP-13 (antibody, human IgG1, V domains shown)
VH: QVQLQQSGAELVRPGASVTLSCKASGYTFTDYEMHWVKQTPVHGLEWIGPIDPETGDTAYNQKFKGQATLTADKSSSTAYMELSSLTSEDSAVYYCTRGSRGVFDYWGQGTALTVSS
VL: B1 VL with G15V, I42Q, T53A, A74T, Q90H, S92F, S93N, H94F, Y96R, K107T
B5: anti-IL18BP antibody BP-01 (antibody, human IgG1, V domains shown)
VH: QVQLQQSGPEVVRPGVSVKISCKGSGYTFTDFAMYWVKQSHAKSLEWIGVISTDNGDTSYNQKFKGKATMTVDKSSSTAYMELDRLTSEDSAIYYCARSRGPFDYWGQGTALTVSS
VL: B1 VL with M11K, G15V, S20N, I42Q, T56I, A74T, S76R, Q90R, H94Y, Y96W
B6: anti-IL18BP antibody BP-07 (antibody, human IgG1, V domains shown)
VH: EVQLQQSGPELVKPGASVKISCRASGFTITDYNMDWVRQSHGKSLEWIGNINLNNGGSIYNQKFKGKATLTIDKSSSTAYMELRSLTSEDTAVYYCARSDTTVVASRYYAMDYWGQGTSVTVSS
VL: DIVLTQSPASLAMSLGKRATISCRASESVSIIGTNLIHWYQQKPGQPPKLLIYHASNLETGVPVRFSGSGSRTDFTLTIDPVEEDDVAIYYCLQSRKIPPTFGGGTKLEIK
B7: anti-IL-18BP antibody variant BP-04.03 (antibody, V domains shown)
VH: QVQLVQSGAEVKKPGASVKVSCKASGYTFTDYDMHWVRQAPGQGLEWMGIISTYYGDVSYAQKFQGRVTMTRDKSTSTVYMELSSLRSENTAVYYCARSGTYYYGTREQHALDYWGQGTLVTVSS
VL: DIQMTQSPSSVSASVGDRVTITCRASDNVYSNLAWYQQKPGKAPKLLIYGAISLADGVPSRFSGSGSGTDFTLTISSLQPEDFATYYCQHFWGNPYTFGQGTKLEIK
B8: anti-IL-18BP antibody variant BP-04.05 (antibody, V domains shown)
VH: B7 VH with D57V, F64K, N90D, Q109S, L112F
VL: B7 VL
B9: anti-IL-18BP antibody variant BP-04.07 (antibody, V domains shown)
VH: B7 VH with D57V, F64K, N90D, Y103N, Q109S
VL: B7 VL
B10: anti-IL18BP antibody BP-03 (antibody, human IgG1, V domains shown)
VH: EVQLQQSGPELVKPGASVKIPCKASGYTFTDYNMDWVKQSHGKSLEWIGNINTDNGGTVYNQKFKGKATLTVDQSSSTAYMELRSLTSEDTAVYYCARSDTTVVASRYYAMDYWGQGTSVTVSS
VL: B6 VL with V64A
B11: anti-IL18BP antibody BP-11 (antibody, human IgG1, V domains shown)
VH: QVQLQQSGAELAKPGASVKMSCKASGYTFTNYWMHWVKQRPGQGLEWIGHIDPSTGYTEYNQKFKDKATLTADKSSSTAYMQLSSLTSEDSAVYYCARGLGGLFGYWGQGTLVTVSA
VL: DIQMTQSPSSLSASLGGKVTITCKASQDINKFIAWYQHKPGKGPRLLIHHTSTLMPGIPSRFSGSGSGREYSFSISNLEPEDIATYYCLQYDNLLWTFGGGTKLEIR
B12: anti-IL18BP antibody BP-16 (antibody, human IgG1, V domains shown)
VH: QVQLVQSGAEVKKPGASVKVSCKASGYTFTTYDINWVRQAPGQGLEWMGIIGSYGGATSYAQKFQGRVTMTRDTSTSTVYMELSSLRSEDTAVYYCATAEEELRFDYWGQGTLVTVSS
VL: DIQMTQSPSSLSASVGDRVTITCRASQSISSYLNWYQQKPGKAPKLLIYKASTLHNGVPSRFSGSGSGTDFTLTISNLQPEDFATYYCQQAISFPLTFGGGTKVEIK
B13: anti-IL18BP antibody BP-06 (antibody, human IgG1, V domains shown)
VH: QIQLQQSGPELVKPGASVKISCKASGYTFTDYYLNWVKQTPGQGLEWIGWIYPGSGNTKYTEKFKDKASLTVDTSSNTAYMQLSSLTSDDTAVYFCARRGVAWFAYWGQGTLVTVSA
VL: DIKMTQSPSSIYASLGERVTITCKASQDINSYLSWFQQKPGKSPKTLIHRANRLVDGVPSRFSGSGSGQDYSLTISSLEYEDMGIYYCLQHDDFPPTFGAGTNLELK
B14: anti-IL18BP antibody BP-08 (antibody, human IgG1, V domains shown)
VH: QVQLQQPGAELVKPGASVKLSCKVSGYTFTSYWMHWVKQRPGQGLEWIGMIDPNSDSSRYNEKFKNRATLTADKSSSTAFMQFSSLTSEDSAVYYCARSRLGQDYWGQGTTLTVSS
VL: B2 VL with R30S, S31T, T32A, G34A, R39K, T51A, G66E, T74I, Y92F, T103K
B15: anti-IL18BP antibody BP-04 (antibody, V domains shown)
VH: HVHLHQSGAELVRPGVSVKISCRGSGYTFTDYDVHWVKQSHAKSLEWIGVISTYYGDVGYNQEFKGKATMTLDKSSSTSYLELARLTSEDSAIYYCARSGTYYYGTRESHALDYWGQGTSVTVSS
VL: DIQMTQSPASLSVSVGETVTITCRTSDNVYSNLAWYQQKQGKSPQLLVYGAINLADGVPSRFSGSGSDTQYSLKINNLQSEDFGSYYCQHFWGNPYTFGGGTKLEIK
notes: also called BP-04 (hybridoma); BP-04 (parental)

target: His/Avi-CynoIL18BP (recombinant cynomolgus IL-18BP with His and Avi tags) (cynomolgus monkey); assay: SPR, qualitative; cross-reactive; * = Mouse IL-18BP binding < human and cynomolgus

Binder	binding
B1	binds
B2	binds
B3	binds
B4	binds
B5	binds

target: His/Avi-CynoIL18BP (recombinant cynomolgus IL-18BP with His and Avi tags) (cynomolgus monkey); assay: SPR, qualitative; cross-reactive; ** = Cynomolgus IL-18BP binding < human and mouse

Binder	binding
B6	binds

target: His/Avi-CynoIL18BP (recombinant cynomolgus IL-18BP with His and Avi tags) (cynomolgus monkey); assay: SPR Biacore T200

Binder	binding
B7	binds
B8	binds
B9	binds

target: His/Avi-CynoIL18BP (recombinant cynomolgus IL-18BP with His and Avi tags) (cynomolgus monkey); assay: SPR, qualitative

Binder	binding
B10	binds
B6	binds
B1	binds
B2	binds
B11	binds
B3	binds
B4	binds
B12	binds
B13	binds
B14	binds
B15	binds
B5	binds

target: His/Avi-CynoIL18BP (recombinant cynomolgus IL-18BP with His and Avi tags) (cynomolgus monkey); assay: SPR, qualitative; cross-reactive; † = Human IL-18BP binding > mouse and cynomolgus

Binder	binding
B12	binds

target: His/Avi-CynoIL18BP (recombinant cynomolgus IL-18BP with His and Avi tags) (cynomolgus monkey); assay: SPR Carterra LSA, IgG immobilized; HB = heterogeneous binding, doesn't fit to 1:1 binding model

Binder	binding
B6	binds
B13	binds

target: His/Avi-CynoIL18BP (recombinant cynomolgus IL-18BP with His and Avi tags) (cynomolgus monkey); assay: SPR, qualitative; column: Human, cynomolgus, and mouse cross-reactive

Binder	binding
B10	binds
B11	binds
B15	binds

target: His/Avi-CynoIL18BP (recombinant cynomolgus IL-18BP with His and Avi tags) (cynomolgus monkey); assay: SPR, qualitative; column: Human and cynomolgus only cross-reactive

Binder	binding
B13	binds
B14	binds

target: His/Avi-CynoIL18BP (recombinant cynomolgus IL-18BP with His and Avi tags) (cynomolgus monkey); assay: ELISA, coated IL-18BP

Binder	binding
B13	binds
